PubChem BioAssay AID504784 | Drosophila RNAi Screening Center, 2011
In all, the deposit lists about 17,000 reagents; shown is an unselected part of those that have a named target and a result. 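Each column is one replicate's B-score; the combined score over replicates was not deposited, so single values may mislead.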 A plus sign joins genes that one reagent is predicted to hit. Further read-outs or replicates are left out here. Reagent sequences are not shown.

- Screen: 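Genome-wide knock-down for genes giving too much or too little stored lipid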 (primary screen)
- System: Drosophila Kc167 embryonic cells
- Knock-down reagent: long dsRNA against Drosophila genes, about 250 ng dsRNA per well
- Time to read-out: 4 days
- Conditions: cells fed 400 µM oleic acid bound to BSA
- Detection: 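Cells imaged and segmented; ratio of lipid droplet area to nuclear area, log-transformed, then normalised as a B-score over the screen; higher means more stored lipid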
- Direction: droplet/nuclear area B-score: higher = more stored lipid (overstorage)

The opening 6 records as a preview:
droplet/nuclear area B-score, replicate 1	predicted target	amplicon
0.699	CG5521	DRSC15828
-0.146	CG13983	DRSC02315
0.034	CG15347	DRSC18031
0.206	mxc (multi sex combs)	DRSC17819
-2.57	sxc (super sex combs)	DRSC04911
-0.567	ppl (pumpless)	DRSC11899

The listing, from the start:
droplet/nuclear area B-score, replicate 1	predicted target	amplicon
0.699	CG5521	DRSC15828
-0.146	CG13983	DRSC02315
0.034	CG15347	DRSC18031
0.206	mxc (multi sex combs)	DRSC17819
-2.57	sxc (super sex combs)	DRSC04911
-0.567	ppl (pumpless)	DRSC11899
-2.25	CG15922	DRSC15128
-0.262	Rad9	DRSC11263
0.0131	MBD-R2	DRSC14180
-0.54	CG32221	DRSC09638
3.03	RpL18A (Ribosomal protein L18A)	DRSC07538
-1.97	lectin-46Cb	DRSC06611
-2.1	rn (rotund)	DRSC12500
-1.41	rn (rotund)	DRSC12543
2.52	rn (rotund)	DRSC12544
-1.28	rn (rotund)	DRSC12546
1.85	rn (rotund)	DRSC22291
1.23	Cad89D (Cadherin 89D)	DRSC15022
0.134	bb8 (big bubble 8)	DRSC15578
1.35	papi	DRSC00693
0.018	Nepl21 (Neprilysin-like 21)	DRSC14133
-0.0481	CG15082	DRSC06513
-0.218	CG10005	DRSC14172
-2.06	PGAP1 (Post-GPI attachment to proteins 1)	DRSC18286
-2.32	CG12607	DRSC08287
-1.98	CG7191	DRSC03022
0.248	CecC (Cecropin C)	DRSC16606
1.14	mRpL28 (mitochondrial ribosomal protein L28)	DRSC02724
7.12	r-l (rudimentary-like)	DRSC17042
0.856	r-l (rudimentary-like)	DRSC22784
1.4	CG3420	DRSC04995
1.53	ph-d (polyhomeotic distal)	DRSC18819
-1.06	ph-d (polyhomeotic distal)	DRSC23191
2.78	Polr2A (RNA polymerase II subunit A)	DRSC20280
0.164	MSBP (membrane steroid binding protein)	DRSC20146
2.04	Ir10a (Ionotropic receptor 10a)	DRSC18891
-1.28	Ir10a (Ionotropic receptor 10a)	DRSC19478
1.65	Ir10a (Ionotropic receptor 10a)	DRSC19479
0.728	Raf (Raf oncogene)	DRSC18821
0.169	Raf (Raf oncogene)	DRSC23311
0.234	CG8032	DRSC16365
0.491	CG31220	DRSC22248
1.56	sand (sandman)	DRSC07245
0.508	CCT8 (Chaperonin containing TCP1 subunit 8)	DRSC07130
-0.283	RhoGAP15B (Rho GTPase activating protein at 15B)	DRSC19924
-1.81	RhoGAP15B (Rho GTPase activating protein at 15B)	DRSC19925
-0.553	Lrpprc2 (Leucine-rich pentatricopeptide repeat containing 2)	DRSC18605
0.136	Porin2	DRSC02584
-1.07	E2f2 (E2F transcription factor 2)	DRSC03320
-0.35	kcc (kazachoc)	DRSC04316
0.439	kcc (kazachoc)	DRSC04516
-0.759	ArgRS (Arginyl-tRNA synthetase)	DRSC20138
1.18	CG31089	DRSC15934
-0.0655	mRpL32 (mitochondrial ribosomal protein L32)	DRSC14479
0.292	CG34417	DRSC18332
0.868	CG34417	DRSC18333
0.067	ath (athos)	DRSC02788
0.113	Dbp21E2 (DEAD box protein 21E2)	DRSC00616
-1.19	CG14764	DRSC05072
0.377	CG14764	DRSC06498
0.275	CG14764	DRSC06844
-0.796	CG15803	DRSC15121
-1.34	CG16970 (retired record)	DRSC02549
0.474	LysP (Lysozyme P)	DRSC08676
4.18	CG10274	DRSC09716
-0.272	Lip2 (Lipase 2)	DRSC02577
-0.538	Lip2 (Lipase 2)	DRSC02578
-0.442	armi (armitage)	DRSC08193
5.96	mRpL44 (mitochondrial ribosomal protein L44)	DRSC12306
-1.09	CG6321	DRSC10623
0.0351	Septin5 (Septin 5)	DRSC06843
-0.937	CG10445	DRSC14247
-0.895	AttB (Attacin-B)	DRSC06734
1.4	VAChT + ChAT	DRSC13312
-0.942	mwh (multiple wing hairs)	DRSC08382
-0.207	CG6026	DRSC15950
-0.278	Mccc1 (Methylcrotonoyl-CoA carboxylase 1)	DRSC15417
1.25	alpha-Est9 (alpha-Esterase-9)	DRSC12621
0.723	Sr-CIV (Scavenger receptor class C, type IV)	DRSC00575
-0.2	CG4210	DRSC15551
0.162	CG14431	DRSC17925
-0.925	CG15034	DRSC17966
0.00649	CG11404	DRSC11656
